Laboratory results: the supplement of paper PMC12889115
Some of the results follow. Values are raw readings; no control value is given beside them.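 Primary screen: polymyxin B was added at a level permeabilizing Salmonella outer membranes while sparing inner membranes. DMSO wells, both with and without polymyxin B, established maximum growth. Plate-to-plate variation meant each plate was ranked on its own, and the lowest-OD600 compounds were selected as hits.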

Tested on: Salmonella enterica serovar Typhimurium SL1344
Experiment: bacterial growth OD600 after 18 h with compound and polymyxin B; higher = more bacterial growth (less inhibition)
Details: 50 µM, Mueller-Hinton broth

## CSc1nccc(-c2cc(Cl)c3c(c2)CC(CNC(=O)CC2CC2)O3)n1 (stereo not given)
Polymyxin B 0.75 µg/mL
  bacterial growth OD600: 0.49

## CCN1CCN(Cc2ccc(OCC(O)CN3CCN(CC)CC3)c(OC)c2)CC1 (stereo not given)
Polymyxin B 1 µg/mL
  bacterial growth OD600: 0.927

## CC(C)CN1CCC(N2CCCC(C(=O)NC3CC3)C2)CC1 (stereo not given)
Polymyxin B 0.75 µg/mL
  bacterial growth OD600: 0.828

## O=C(c1cccc2ccccc12)C1CCCN(Cc2cccc3c2OCO3)C1 (stereo not given)
Polymyxin B 1 µg/mL
  bacterial growth OD600: 0.558

## O=C(Nc1ccccc1Oc1cccnc1)C1CCCN1C1CCCCC1 (stereo not given)
Polymyxin B 1 µg/mL
  bacterial growth OD600: 0.657

## Cc1nc(N(C)C2CCCCC2)ncc1C(C)NC(=O)C(C)C (stereo not given)
Polymyxin B 0.75 µg/mL
  bacterial growth OD600: 0.713

## COC(=O)C1CCCCN1C(=O)c1c(OC)cc(=O)n2c1CCN(Cc1cccc(F)c1F)CC2 (stereo not given)
Polymyxin B 0.75 µg/mL
  bacterial growth OD600: 0.841

## CC(C)CNC(=O)C1CCCN(C2CCN(C(=O)C3CC3)CC2)C1 (stereo not given)
Polymyxin B 0.75 µg/mL
  bacterial growth OD600: 0.817

## COC(=O)C1CCCCN1Cc1nc(-c2ccccc2C)oc1C (stereo not given)
Polymyxin B 1 µg/mL
  bacterial growth OD600: 0.826

## COc1cc(-c2cnnc(N3CCC(c4ccc(F)cc4)C3)n2)cc(OC)c1OC (stereo not given)
Polymyxin B 1 µg/mL
  bacterial growth OD600: 1.16

## Cc1cccc(CN2CCN(C(=O)c3cn(CC(C)C)cc(C(=O)NCCC(C)C)c3=O)CC2)c1
Polymyxin B 0.75 µg/mL
  bacterial growth OD600: 0.006

## OCC#Cc1csc(CN2CC[C@@H](N3CCN(c4ccccn4)CC3)[C@H](O)C2)c1
Polymyxin B 1 µg/mL
  bacterial growth OD600: 0.866

## Cc1nc(CN(C)C(=O)CC2(c3ccccc3F)CC(=O)N(C3CCCCC3)C2=O)cs1 (stereo not given)
Polymyxin B 0.75 µg/mL
  bacterial growth OD600: 0.005

## O=C(NCCN1CCOCC1)c1ccc(N2CCC(NC[C@H]3CCc4ccccc4O3)CC2)cc1
Polymyxin B 0.75 µg/mL
  bacterial growth OD600: 0.814

## COc1cccc(CC(C2CCN(C(=O)c3ccccc3F)CC2)N(C)C(=O)c2ccsc2)c1 (stereo not given)
Polymyxin B 0.75 µg/mL
  bacterial growth OD600: 0.575

## O=C(Nc1cccc(N2CCC(NCCOc3cccnc3)CC2)c1)c1cccc(C(F)(F)F)c1
Polymyxin B 0.75 µg/mL
  bacterial growth OD600: 0.779

## O=C(CCc1ccsc1)NC1CCCc2nc(-c3ccccc3)ncc21 (stereo not given)
Polymyxin B 1 µg/mL
  bacterial growth OD600: 0.915

## CSc1ccccc1OCc1cc(C(=O)NC(C)c2cnn(C)c2)no1 (stereo not given)
Polymyxin B 1 µg/mL
  bacterial growth OD600: 0.919

## CCn1cc(C(=O)NCc2cccnc2-n2cnc3ccccc32)cn1
Polymyxin B 1 µg/mL
  bacterial growth OD600: 1.07

## Cc1noc(C)c1CCCNC(=O)c1ccc(N(C)C)nc1
Polymyxin B 1 µg/mL
  bacterial growth OD600: 1.02

## COC1CCN(C(=O)Cc2c3c(n(Cc4ccccc4)c2C)CCCC3=O)CC1
Polymyxin B 1 µg/mL
  bacterial growth OD600: 1.12

## COCCC(=O)NC1CCCc2c1cnn2-c1ccc(C(C)(C)C)cc1 (stereo not given)
Polymyxin B 1 µg/mL
  bacterial growth OD600: 1.13

## CC(=O)N1CCC(C(=O)N2CCCC(CCc3ccccc3C)C2)CC1 (stereo not given)
Polymyxin B 0.75 µg/mL
  bacterial growth OD600: 0.6

## CN(Cc1ccccc1)C1CCCN(C(=O)CCc2ccc(F)cc2)C1 (stereo not given)
Polymyxin B 1 µg/mL
  bacterial growth OD600: 0.738

## CC(Cc1ccsc1)NC(=O)CCC1(Cc2ccc(Cl)cc2)CCC(=O)N1 (stereo not given)
Polymyxin B 0.75 µg/mL
  bacterial growth OD600: 0.797

## Cn1ccnc1CNc1ccc(-c2nc(Cc3ccc(F)cc3)no2)cn1
Polymyxin B 0.75 µg/mL
  bacterial growth OD600: 0.38

## O=S(=O)(Nc1cccc(N2CCC(NCCc3cccs3)CC2)c1)c1ccc(F)cc1
Polymyxin B 0.75 µg/mL
  bacterial growth OD600: 0.858

## COCCn1cnc2cc(NC(=O)C3CCCCC3)cc(C(=O)N3CCN(C(C)=O)CC3)c21
Polymyxin B 0.75 µg/mL
  bacterial growth OD600: 0.865

## Cc1nn(C)cc1CN(C)CC1(O)CCCN(Cc2cccc(F)c2F)C1=O (stereo not given)
Polymyxin B 1 µg/mL
  bacterial growth OD600: 0.945

## C=Cc1ccc(C(=O)N2CCC(c3nc(-c4ccncc4)ncc3-c3cccc(OC)c3)CC2)cc1
Polymyxin B 0.75 µg/mL
  bacterial growth OD600: 0.012
